Test results reported in patent publication US20230265614A1, “WATER INSOLUBLE, HIGH MELTING POINT SACCHARIDE FATTY ACID ESTERS (SFAE)” (GREENTECH GLOBAL PTE. LTD., priority 2021, published 2023).

Experiments:
[1] = Oil Cobb test using vegetable oil at room temperature on SFAE coated base paper; conditions: room temperature about 20-23° C., SFAE coated Southworth base paper
Protocol: (§1) A Southworth paper was chosen as a base paper. The base paper was approximately a 40# sheet with a Gurley porosity running around 200 sec.
(§2) Three different specific SFAE were prepared, dissolved in an organic solvent (a solution of 70% ethanol, and 30% chloroform), and applied to the base paper via hand drawdown at the coating weight listed in Table 2. The coating weight is the weight (pounds/ton) is the weight of the specific SFAE after the organic solvent was evaporated. Once the papers were dried and conditioned, the SFAE coated base papers were tested for water resistance and lipid resistance (OGR) using various tests, and compared to uncoated base paper as a control.
(§3) Oil and grease resistance was tested using several tests: • (i) a 3 M KIT Test (Tappi Standard Test Method T 559 “Grease resistance”), • (ii) a Folded KIT Test, wherein the paper is subjected to a 180° fold, reopoend, and then grease is placed on the resulting crease according to the same 3 M KIT Test. • (iii) oil Cobb tests using vegetable oil adapted from Tappi Standard Test Method T 441 om-20 at room temperature of about 20-23° C. and at 100° C.; and • (iv) an Oil Drop test in a 100° C. oven.

[2] = Folded KIT Test (180° fold, grease on crease) on SFAE coated base paper; conditions: paper folded 180°, reopened, SFAE coated Southworth base paper
Protocol: as §1, §2, §3

[3] = Oil Cobb test using vegetable oil at 100° C. on SFAE coated base paper; conditions: SFAE coated Southworth base paper
Protocol: as §1, §2, §3

[4] = 3 M KIT Test (Tappi T 559 Grease resistance) on SFAE coated base paper; conditions: SFAE coated Southworth base paper
Protocol: as §1, §2, §3

Substance: trehalose dilaurate
- Oil Cobb (50 sec) [1]: 3.2
- Folded KIT [2]: Pass 3 Fail 3
- 100° C. Oil Cobb (60 sec) [3]: 4.8
- KIT [4]: Pass 6 PH 7 Fail 8

Substance: trehalose dipalmitate
- Oil Cobb (50 sec) [1]: 4
- Folded KIT [2]: Fail <3
- 100° C. Oil Cobb (60 sec) [3]: 14.4
- KIT [4]: Pass 5 PH 6 Fail 7

Substance: trehalose distearate
- Oil Cobb (50 sec) [1]: 4.8
- Folded KIT [2]: Pass 3 Fail 4
- 100° C. Oil Cobb (60 sec) [3]: 6.4
- KIT [4]: Pass 6 Fail 7
